Experimental data: PubChem BioAssay AID1259254 (NCATS, 2017)
The deposit covers about 59,000 reagents; this is an unselected part. Over the whole deposit, about 1,550 (2.6%) were called active. 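G2 share is only a proxy for re-replication; each gene was hit by three separate siRNAs, and active genes were retested.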 The raw values are shown without normalisation. Reagents against one gene are numbered here. Reagent sequences are not shown. The record does not give: the amount of reagent.

Screen: 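Finding genes that stop cells copying their DNA twice in one cycle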 (primary screen)
System: human HCT116 colorectal cancer cells
Reagent: single siRNA against human genes
Duration: 3 days
Measurement: 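Nuclei stained with Hoechst and imaged; cell-cycle phase assigned by DNA content; G2 share scaled per plate, non-targeting siRNA 0%, GMNN siRNA 100%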
Direction: G2 robust z-score and G2 cells, % of GMNN control: higher = more G2 cells, more excess DNA replication; raw share of cells in G2: higher = larger share of cells with G2 DNA content
Active means: 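Active siRNAs have a G2 robust z of 5 or more median absolute deviations over the median, which in these data means about 38% or higher of GMNN control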

target gene,reagent,G2 robust z-score,"G2 cells, % of GMNN control",raw share of cells in G2 (%),Outcome
GRIPAP1 (GRIP1 associated protein 1),1,1.28,12,6.82,inactive
GRIPAP1 (GRIP1 associated protein 1),2,2.58,21.1,12.7,inactive
GRIPAP1 (GRIP1 associated protein 1),3,-0.413,0.0598,4.49,inactive
ABCB10 (ATP binding cassette subfamily B member 10),1,0.49,6.41,6.06,inactive
ABCB10 (ATP binding cassette subfamily B member 10),2,-0.867,-3.13,3.11,inactive
ABCB10 (ATP binding cassette subfamily B member 10),3,0.231,4.59,8.21,inactive
SPCS2 (signal peptidase complex subunit 2),1,2.34,19.4,14.1,inactive
SPCS2 (signal peptidase complex subunit 2),2,0.802,8.61,7.54,inactive
SPCS2 (signal peptidase complex subunit 2),3,-0.124,2.1,4.17,inactive
MT1B (metallothionein 1B),1,2.67,21.8,14.2,inactive
MT1B (metallothionein 1B),2,2.67,21.8,12.8,inactive
MT1B (metallothionein 1B),3,1.62,14.3,8.54,inactive
USP51 (ubiquitin specific peptidase 51),1,-0.531,-0.769,5.27,inactive
USP51 (ubiquitin specific peptidase 51),2,8.39,62,24.9,active
USP51 (ubiquitin specific peptidase 51),3,-0.656,-1.65,3.65,inactive
TM7SF3 (transmembrane 7 superfamily member 3),1,0.405,5.81,5.68,inactive
TM7SF3 (transmembrane 7 superfamily member 3),2,-0.618,-1.38,3.69,inactive
TM7SF3 (transmembrane 7 superfamily member 3),3,-0.856,-3.05,2.18,inactive
ATP11AUN (ATP11A upstream neighbor lncRNA),1,7.21,53.7,23.3,active
ATP11AUN (ATP11A upstream neighbor lncRNA),2,1.17,11.2,7.96,inactive
ATP11AUN (ATP11A upstream neighbor lncRNA),3,4.22,32.6,18.3,inactive
TGFA (transforming growth factor alpha),1,-0.413,0.065,4.7,inactive
TGFA (transforming growth factor alpha),2,-0.667,-1.72,3.57,inactive
TGFA (transforming growth factor alpha),3,0.328,5.27,6.79,inactive
PCMTD1,1,0.268,4.85,6.31,inactive
PCMTD1,2,-0.713,-2.05,4.72,inactive
PCMTD1,3,0.486,6.38,7.71,inactive
CLEC19A (C-type lectin domain containing 19A),1,-0.356,0.462,3.78,inactive
CLEC19A (C-type lectin domain containing 19A),2,0.575,7.02,6.2,inactive
CLEC19A (C-type lectin domain containing 19A),3,-0.934,-3.6,1.6,inactive
GPR20 (G protein-coupled receptor 20),1,1.96,16.8,8.41,inactive
GPR20 (G protein-coupled receptor 20),2,-1.18,-5.37,3.92,inactive
GPR20 (G protein-coupled receptor 20),3,-0.846,-2.98,3.47,inactive
SERPINA11 (serpin family A member 11),1,-0.444,-0.158,4.63,inactive
SERPINA11 (serpin family A member 11),2,2.74,22.3,12.8,inactive
SERPINA11 (serpin family A member 11),3,-0.586,-1.16,5.41,inactive
CYP4V2 (cytochrome P450 family 4 subfamily V member 2),1,0.726,8.07,8.11,inactive
CYP4V2 (cytochrome P450 family 4 subfamily V member 2),2,3.6,28.3,18.1,inactive
CYP4V2 (cytochrome P450 family 4 subfamily V member 2),3,4.01,31.2,15.7,inactive
FGF13 (fibroblast growth factor 13),1,-0.66,-1.68,4.63,inactive
FGF13 (fibroblast growth factor 13),2,0.338,5.35,5.56,inactive
FGF13 (fibroblast growth factor 13),3,0.107,3.72,6.68,inactive
FGF13 (fibroblast growth factor 13),4,-0.19,1.63,4.31,inactive
FGF13 (fibroblast growth factor 13),5,-0.36,0.437,3.68,inactive
FGF13 (fibroblast growth factor 13),6,-0.688,-1.88,2.8,inactive
"DPM3 (dolichyl-phosphate mannosyltransferase subunit 3, regulatory)",1,-0.545,-0.868,3.29,inactive
"DPM3 (dolichyl-phosphate mannosyltransferase subunit 3, regulatory)",2,4.45,34.3,18.7,inactive
"DPM3 (dolichyl-phosphate mannosyltransferase subunit 3, regulatory)",3,-0.43,-0.059,3.17,inactive

Reagents listed above called active (2):
target gene,reagent,G2 robust z-score,"G2 cells, % of GMNN control",raw share of cells in G2 (%),Outcome
USP51 (ubiquitin specific peptidase 51),2,8.39,62,24.9,active
ATP11AUN (ATP11A upstream neighbor lncRNA),1,7.21,53.7,23.3,active
